# Results as given in PubChem BioAssay AID493014 (National Center for Advancing Translational Sciences (NCATS), 2011).
# In all, about 340,000 compounds went through this assay and about 170 (0.05%) were called active. The shares of active, inactive and inconclusive entries below differ from those in the screen. Calls come from the whole dose curve; as a rule, active = well fitted inhibition curve with a large enough effect in the signal ratio, with a control signal flat (not every such curve was filed as active); inconclusive = small, poorly fitted or top-dose-only effect, or effect the other way, or a change in a side signal; inactive = flat fitted curve, though single readings scatter; the % refers to the signal ratio. Potencies of inconclusive entries are doubtful fits and often do not repeat.
# Assay: qHTS Assay to Find Inhibitors of Chronic Active B-Cell Receptor Signaling;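 for activity change, negative = inhibition: plate controls were basal doxycycline-induced cells for no effect and cells given 10 µM MG132 for full effect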
# Details: ABC-DLBCL IkBa-CBG/CBR reporter, luminescence ratio (green luciferase fused to IkBa over red control in TMD8 lymphoma cells), 4 h; activity change, negative = inhibition: at 46.1 µM (top of the series)
# Method in brief: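 Doxycycline induced both beetle luciferases in TMD8 lymphoma cells; IKK-driven degradation limits the IkappaBalpha-fused green signal, while red luminescence normalises for cell number and nonspecific effects. Compounds tested up to 46 uM, 4 hrs.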
# Potency is the fitted concentration of half-maximal effect.
SMILES,Potency,"activity change, negative = inhibition"
COc1cccc(OC)c1C(=O)OCc1c(-c2ccccc2)ncc2ccccc12,"inconclusive: 7.31 µM [falling, partial curve]",–
Cc1cccnc1NC(=S)NC(=O)c1cccs1,"inconclusive: 35.5 µM [falling, single point]",–
Cc1cc(C)nc(/N=C2\NC(=O)CC(C(=O)O)N2c2ccc(Cl)cc2)n1 (stereo not given),–,inconclusive: 25.6%
O=C(NCc1ccccn1)Nc1ccc2c(c1)OCO2,"inconclusive: 5.8 µM [falling, full curve, poor fit]",–
N/C(=N\OC(=O)c1cccnc1)c1ccccc1Cl,"inconclusive: 25.1 µM [falling, partial curve, poor fit]",–
Fc1ccccc1CNC(=S)Nc1cccc(C(F)(F)F)c1,–,inconclusive: 8.78%
Cc1ccccc1C(=O)Nc1cccc(C(=O)N/N=C/c2ccc3c(c2)OCO3)c1,"inconclusive: 12.6 µM [falling, partial curve]",–
O=C(CCN1CCCCC1c1cccnc1)NCc1ccccc1 (stereo not given),–,inconclusive: 11.4%
O=C(O)CCC(=O)N1N=C(c2ccccc2)CC1c1ccc2nccnc2c1 (stereo not given),–,inconclusive: 15.4%
c1ccc(-c2ccc(-c3cn4c(n3)CCC4)cc2)cc1,"inconclusive: 3.26 µM [falling, single point]",–
CCOC(=O)CSc1nc(C(C)(C)C)nc2ccccc12,–,inactive
CCC(=O)Nc1ccc(S(=O)(=O)N2CCc3ccccc32)cc1,–,inactive
OCCN(CCO)c1ccc(C(c2ccc(Cl)cc2)c2ccc(N(CCO)CCO)cc2Cl)c(Cl)c1,"inconclusive: 18.4 µM [rising, single point]",–
Cn1nc(C(=O)Nc2cccc(C(F)(F)F)c2)ccc1=O,–,inconclusive: 12.7%
O=C(N/N=C/c1cc(Br)cc(Br)c1O)c1ccncc1,–,inactive
O=C(Cn1c(=O)cnc2ccccc21)Nc1cccc(S(=O)(=O)N2CCCCC2)c1,–,inconclusive: -12.5%
COc1cccc(-c2cc(C(=O)Nc3ccc4c(c3)OCO4)no2)c1,"inconclusive: 17.8 µM [falling, partial curve, poor fit]",–
CC1CCc2nc(NC(=O)c3ccco3)sc2C1 (stereo not given),"inconclusive: 6.51 µM [falling, single point]",–
Cc1ccc(NC(=O)c2ccc(COc3ccccc3[N+](=O)[O-])o2)nc1,–,inconclusive: -8.79%
Cc1ccc(-c2cc(C(F)F)nc(NCc3cccs3)n2)cc1,–,inconclusive: 16.3%
COc1ccccc1-c1c(C#N)c(N)nc2c1CCc1ccccc1-2,–,inconclusive: 14.1%
CC(C)CC(C(=O)Nc1oc(-c2ccccc2)c(-c2ccccc2)c1C#N)N1C(=O)c2ccccc2C1=O (stereo not given),"inconclusive: 5.17 µM [rising, partial curve, poor fit]",–
Cc1ccccc1OCC(=O)Nc1nc(-c2ccncc2)cs1,"inconclusive: 23.1 µM [falling, partial curve, poor fit]",–
Cc1cc2nc3c(c(=O)n2[nH]1)CCCC3,–,inconclusive: 7.1%
COc1ccc(C2=NN3C(C2)c2ccccc2OC3c2cccs2)cc1 (stereo not given),"inconclusive: 31.6 µM [falling, single point]",–
CC(Oc1ccccc1)C(=O)Nc1nnc(S(=O)(=O)N2CCCCCC2)s1 (stereo not given),–,inactive
OCC[C@@H]1C[C@@H](O)[C@H](O)[C@]2(CCc3ccccc3CO2)O1,–,inconclusive: 4.53%

SMILES,Potency,"activity change, negative = inhibition"
O=C(Nc1cc(C(F)(F)F)ccc1N1CCOCC1)C1CCCO1 (stereo not given),–,inactive
O=c1c2sccc2nc(SCc2cc(=O)n3ccccc3n2)n1-c1ccc(Br)cc1,–,inconclusive: 6.45%
COCC(C)NC(=O)CSc1nc2ccccc2c(=O)n1CCc1ccc(S(N)(=O)=O)cc1 (stereo not given),–,inactive
O=C(NCC(c1ccco1)N1CCN(c2ccc(F)cc2)CC1)C(=O)NC1CCCCC1 (stereo not given),"inconclusive: 29.1 µM [falling, single point]",–
CCOc1cc(C(c2c(C)[nH][nH]c2=O)c2c(C)[nH][nH]c2=O)cc(Cl)c1O,"inconclusive: 35.5 µM [falling, single point]",–
CCCC(O)(c1ccc(Cl)cc1)C(CN1CCOCC1)c1ccccc1 (stereo not given),–,inactive
Cc1ccccc1NC(=O)CN1CCC(NC(=O)Nc2ccccc2)CC1,–,inconclusive: 2.08%
O=S(=O)(c1ccccc1)N1N=C(c2ccc(O)cc2)CC1c1ccco1 (stereo not given),–,inconclusive: -0.0964%
COc1cc(/C=C/C(=O)OCC(=O)NC2CCCCCCC2)ccc1O,–,inconclusive: -4.46%
Cc1cccc(NC(=O)C(=O)NCCCc2ccccc2)c1,"inconclusive: 20.6 µM [falling, single point]",–
CC(C)c1ccccc1NC(=O)COC(=O)C1(C)CC1(Cl)Cl (stereo not given),–,inactive
COc1ccc(C2c3ccc4ccccc4c3Oc3ncn(CCCO)c(=N)c32)cc1OC (stereo not given),"inconclusive: 10 µM [falling, partial curve, poor fit]",–
COc1cc(C)ccc1OCCCCOc1ccccc1C(C)=O,–,inactive
COc1ccc(C2c3ccc4ccccc4c3Oc3ncn(CCN4CCOCC4)c(=N)c32)cc1 (stereo not given),"inconclusive: 3.98 µM [falling, partial curve, poor fit]",–
Nc1c(-c2cccs2)cnc2c(-c3ccc(F)cc3)cnn12,–,inconclusive: 1.89%
NC(=O)NC(=O)COC(=O)/C=C/c1cccc(Br)c1,–,inconclusive: -0.528%
COc1ccc(/C(N)=N/OC(=O)CSc2ccc(C)cc2)cc1,–,inactive
CCc1ccccc1NC(=O)/C(=C/c1ccco1)c1ccccc1,–,inactive
Cc1csc(CNc2ncnc3ccc(-c4ccoc4)cc23)c1,"inconclusive: 16.4 µM [rising, partial curve]",–
Cc1ccc(-c2ccc(C(=O)O)o2)cc1Cl,"inconclusive: 0.562 µM [rising, full curve, poor fit]",–
CCOc1ccc(S(=O)(=O)Nc2ccc(C(=O)N3CCC3)cc2)cc1,–,inconclusive: 14.5%
O=C(NC(=S)Nc1ccc2oc(=O)ccc2c1)c1cccc(F)c1,–,inconclusive: 5.99%
CCOC(=O)c1ccc(CN(Cc2ccc(Br)cc2)S(=O)(=O)c2cccc(C(F)(F)F)c2)cc1,–,inconclusive: 33.8%
O=C(CSc1nc(-c2ccccc2Cl)ns1)c1ccc(Cl)cc1,–,inconclusive: 12.6%
C[C@H]1CN=C(Nc2ccccc2)N1CCCC1CCCC1,–,inactive
CC(C)c1nc2n[nH]c(N)c2c2c1CSC(C)(C)C2,–,inconclusive: 2.36%
O=C(NCCc1ccccc1)C1CCN(S(=O)(=O)c2ccccc2)CC1,–,inconclusive: 16.1%

# Quoted at random: five entries already listed
SMILES,Potency,"activity change, negative = inhibition"
O=C(NCC(c1ccco1)N1CCN(c2ccc(F)cc2)CC1)C(=O)NC1CCCCC1 (stereo not given),"inconclusive: 29.1 µM [falling, single point]",–
CCc1ccccc1NC(=O)/C(=C/c1ccco1)c1ccccc1,–,inactive
CC(C)c1nc2n[nH]c(N)c2c2c1CSC(C)(C)C2,–,inconclusive: 2.36%
Cc1csc(CNc2ncnc3ccc(-c4ccoc4)cc23)c1,"inconclusive: 16.4 µM [rising, partial curve]",–
O=C(CSc1nc(-c2ccccc2Cl)ns1)c1ccc(Cl)cc1,–,inconclusive: 12.6%

# The list goes on:

SMILES,Potency,"activity change, negative = inhibition"
O=C(/C=C/c1ccccc1)Nc1cccc(C(=O)O)c1,"inconclusive: 0.794 µM [rising, full curve, poor fit]",–
C=CCOc1ccc(CNc2nccs2)cc1OC,–,inconclusive: -8.54%
COc1cc(OC)cc(-c2nc3ccccc3c(=O)n2OC(=O)c2ccccc2C)c1,–,inconclusive: 2.27%
O=S(=O)(Nc1cccc(-c2ccc(N3CCOCC3)nn2)c1)c1cc(C(F)(F)F)ccc1Cl,–,inactive
CC(Cc1cccs1)NC(=O)Nc1ccc(F)cc1 (stereo not given),–,inconclusive: 2.64%
O=C(O)c1ccc(/C=N/NC(=O)c2ccc(F)cc2)cc1,"inconclusive: 12.6 µM [falling, single point]",–
COc1ccc(-c2nn(CCC#N)cc2C(=O)Nc2cccc(C(=O)O)c2)cc1[N+](=O)[O-],–,inconclusive: 3.48%
Cc1cc2cc(CCNC(=O)CC(C)(C)C)c(=O)[nH]c2cc1C,–,inconclusive: 2.77%
CC(C)C[C@H]1CN=C(Nc2ccccc2)N1CC1CCC(C(C)(C)C)CC1 (stereo not given in full),"inconclusive: 20.6 µM [falling, single point]",–
CC(=O)c1c(C)[nH]c(C(=O)OCC(=O)Nc2cc(C)on2)c1C,–,inconclusive: 5.87%
Cc1nnc(SCC(=O)Nc2nccs2)s1,–,inconclusive: 0.647%
N#C/C(=C\C=C\c1ccccc1[N+](=O)[O-])C(=O)NC1CCCCC1,"inconclusive: 12.6 µM [cytotoxic, partial curve]",–
O=C(Cn1c2c(c(=O)n3ncnc13)CCC2)N/N=C/c1cccs1,–,inconclusive: 3.47%
O=C(c1ccc(F)cc1)N1CCCC(c2ccccc2)C1 (stereo not given),–,inconclusive: 9.78%
CCC/C=C(\CCC)C(NS(=O)(=O)c1cccc2cccnc12)c1ccc(C(=O)OC)cc1 (stereo not given),–,inactive
O=C(CSc1nccn(-c2ccc(Br)cc2)c1=O)Nc1ccccc1F,–,inconclusive: -29.2%
COCCCn1c(SCC(=O)N2CCOCC2)nc2cc(Cl)ccc2c1=O,–,inconclusive: -0.0214%
N/C(=N\OC(=O)c1ccc2ccccc2c1)c1ccccc1Cl,"inconclusive: 25.1 µM [falling, single point]",–
Clc1ccc(CNCCCSc2ncccn2)cc1,–,inconclusive: 1.45%
Cc1ccc(S(=O)(=O)CCC(=O)OCC(=O)NCCc2ccc(S(N)(=O)=O)cc2)cc1,–,inconclusive: 4.07%
COc1cccc(C(=O)NN=C2CCCC2)c1,"inconclusive: 17.8 µM [falling, partial curve]",–
CCc1cccc(NC(=S)N(CCCOC(C)C)C2CCN(C(C)=O)CC2)c1,–,inconclusive: -0.857%
CC(Oc1ccc(Cl)cc1Cl)c1ccnc(N)n1 (stereo not given),–,inactive
COC(=O)c1ccc(C2C(Oc3ccccc3C)C(=O)N2CCc2ccc(OC)c(OC)c2)cc1 (stereo not given),–,inconclusive: 5.4%
O=C1/C(=C\c2ccsc2)NC(=S)N1c1ccccc1,"inconclusive: 25.1 µM [falling, partial curve]",–
COc1ccc2c(c1)-c1nc(/N=C/c3ccc(O)c(OC)c3)sc1CC2,"inconclusive: 1.46 µM [falling, partial curve, poor fit]",–
